Source: the supplement of paper PMC6078165
± gives the standard deviation of the averaged measurements. Values are relative to the signal before dosing, not to a vehicle control; the signal also falls without drug.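 The cancer cells are triple-negative breast cancer lines of basal-like or mesenchymal-like type, grown without fibroblasts. A drop in red signal reflects loss of mitochondrial integrity, a stand-in for apoptotic death.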

How the values were obtained:
[1] = tested on: HCC1143; experiment: relative JC-1 red fluorescence (viability) vs pre-drug, monoculture (fraction); higher = more viable cancer cells; settings: coculture fibroblast: none (monoculture)
Description: (§1)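 JC-1 labelled TNBC cells grown in monoculture (density kept equal with unlabelled cancer cells) in 384-well plates in FluoroBrite medium, treated with one of 42 anticancer drugs at 0.1, 1, 10 or 100 uM. JC-1 red fluorescence (mitochondrial integrity, surrogate of apoptotic death) was read by plate reader every 8 h for 72 h. Values are normalised to each well's pre-drug value, with background from alamethicin. The stock of one drug was tenfold lower, so its dose labels may be too high. Monoculture values are repeated alongside each fibroblast plate and are averaged here.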

[2] = tested on: MDAMB436; experiment: as above; settings: coculture fibroblast: none (monoculture)
Description: as §1

CO[C@@]12[C@H](COC(N)=O)C3=C(C(=O)C(C)=C(N)C3=O)N1C[C@@H]1N[C@@H]12 [Mitomycin C]
relative JC-1 red fluorescence
Settings	8 h	16 h	24 h	32 h	40 h	48 h	56 h	64 h	72 h
[1], 0.1 µM	0.8842 ± 0.0061	0.8032 ± 0.0066	0.73 ± 0.013	0.686 ± 0.016	0.625 ± 0.018	0.587 ± 0.024	0.567 ± 0.016	0.547 ± 0.018	0.532 ± 0.021
[1], 1 µM	0.842 ± 0.018	0.7411 ± 0.0044	0.678 ± 0.0081	0.642 ± 0.014	0.592 ± 0.02	0.553 ± 0.029	0.531 ± 0.039	0.515 ± 0.043	0.499 ± 0.044
[1], 10 µM	0.864 ± 0.0014	0.7742 ± 0.0069	0.705 ± 0.014	0.648 ± 0.013	0.594 ± 0.015	0.54582 ± 5.4e-05	0.513 ± 0.0086	0.488 ± 0.018	0.476 ± 0.028
[1], 100 µM	0.607 ± 0.02	0.48 ± 0.043	0.421 ± 0.054	0.382 ± 0.069	0.361 ± 0.073	0.366 ± 0.075	0.362 ± 0.076	0.369 ± 0.08	0.377 ± 0.084
[2], 0.1 µM	0.847 ± 0.0098	0.787 ± 0.026	0.747 ± 0.031	0.674 ± 0.015	0.658 ± 0.017	0.655 ± 0.015	0.656 ± 0.015	0.657 ± 0.015	0.655 ± 0.0084
[2], 1 µM	0.802 ± 0.004	0.7362 ± 0.0061	0.7194 ± 0.0048	0.665 ± 0.012	0.642 ± 0.016	0.632 ± 0.017	0.618 ± 0.013	0.62 ± 0.016	0.62 ± 0.012
[2], 10 µM	0.865 ± 0.021	0.801 ± 0.013	0.775 ± 0.013	0.707 ± 0.014	0.6747 ± 0.002	0.6699 ± 0.0042	0.664 ± 0.012	0.659 ± 0.019	0.659 ± 0.024
[2], 100 µM	0.7079 ± 0.0029	0.787 ± 0.063	0.858 ± 0.088	0.855 ± 0.11	0.818 ± 0.052	0.812 ± 0.029	0.771 ± 0.022	0.842 ± 0.041	0.845 ± 0.034

O=C(CCCCCCC(=O)Nc1ccccc1)NO [Vorinostat]
relative JC-1 red fluorescence
Settings	8 h	16 h	24 h	32 h	40 h	48 h	56 h	64 h	72 h
[1], 0.1 µM	0.9035 ± 0.0065	0.7904 ± 0.0078	0.755 ± 0.031	0.706 ± 0.038	0.678 ± 0.048	0.652 ± 0.069	0.638 ± 0.082	0.632 ± 0.098	0.627 ± 0.1
[1], 1 µM	0.8486 ± 0.003	0.768 ± 0.006	0.684 ± 0.023	0.621 ± 0.018	0.56 ± 0.027	0.521 ± 0.029	0.493 ± 0.037	0.47 ± 0.039	0.463 ± 0.04
[1], 10 µM	0.871 ± 0.014	0.781 ± 0.022	0.67 ± 0.023	0.616 ± 0.034	0.561 ± 0.047	0.539 ± 0.064	0.521 ± 0.068	0.514 ± 0.08	0.506 ± 0.083
[1], 100 µM	0.8935 ± 0.0061	0.766 ± 0.0059	0.663 ± 0.011	0.571 ± 0.018	0.506 ± 0.0069	0.4788 ± 0.0013	0.455 ± 0.0051	0.447 ± 0.0083	0.444 ± 0.011
[2], 0.1 µM	0.8278 ± 0.0044	0.6874 ± 0.0025	0.6752 ± 0.006	0.6145 ± 0.0058	0.5913 ± 0.0039	0.5747 ± 0.0031	0.5633 ± 0.0033	0.56 ± 0.0074	0.56 ± 0.011
[2], 1 µM	0.855 ± 0.018	0.781 ± 0.013	0.742 ± 0.019	0.669 ± 0.021	0.641 ± 0.044	0.629 ± 0.061	0.609 ± 0.081	0.608 ± 0.085	0.607 ± 0.096
[2], 10 µM	0.84174 ± 0.00058	0.7402 ± 0.0026	0.725 ± 0.0098	0.659 ± 0.012	0.6285 ± 0.0023	0.605 ± 0.014	0.603 ± 0.016	0.601 ± 0.015	0.595 ± 0.018
[2], 100 µM	0.8861 ± 0.0067	0.7577 ± 0.0015	0.7128 ± 0.0022	0.62 ± 0.0066	0.585 ± 0.015	0.564 ± 0.023	0.56 ± 0.021	0.553 ± 0.026	0.557 ± 0.03
